# Measurements from publication PMC4872784 (Oncotarget, 2016).
# Tested on: MOLM14 cells
# Assay: alamarBlue cytotoxicity assay, 48h
# Assay type: cell-based
# Settings: Homo sapiens, MOLM-14, MOLM14 (AML), RPMI + 10% FBS
# Procedure: Following subtraction of background fluorescence from all wells, fluorescence of drug-treated cells was normalized to that of vehicle (<0.5% DMSO)-treated cells to determine the effect of each drug concentration on viability. Each cell line was tested in triplicate and in at least three independent experiments. IC50 (concentration that inhibits cell growth by 50%) values were calculated using CompuSyn software (ComboSyn, Paramus, NJ). […] In addition several cell lines were initially cultured and tested in alternative media (Supplementary Table S2). […] Colony counts were normalized to vehicle-treated controls (100%). Three independent experiments were performed.
# In most experiments, cytotoxicity was assessed using alamarBlue assays (Life Technologies, Grand Island, NY). In experiments using NAC and DFO, which can interfere with alamarBlue assay performance, Trypan Blue dye exclusion was used instead. […]
# experiments performed in triplicate. […] Age refers to age […]
# at the time of leukemia diagnosis of the patient from whom the cell line was derived. (–) Indicates information unavailable.
# *Cell lines with FLT3/ITD mutations.
# *The MV-4–11 cell line was derived from a patient with a biphenotypic B-myelomonocytic leukemia; K562 was derived […]
# measured via alamarBlue assay. […]
structure (smiles),measurement,value
"CO[C@@H]1[C@H](N(C)C(=O)c2ccccc2)C[C@H]2O[C@]1(C)n1c3ccccc3c3c4c(c5c6ccccc6n2c5c31)C(=O)NC4 [MID, midostaurin]",IC50,11 nM
